# Primary screen of a compound library

The chains behind the UniProt entries cited, without tags or fusion partners. Residues count along the entry.
UniProt Q8IDJ8, 1-583: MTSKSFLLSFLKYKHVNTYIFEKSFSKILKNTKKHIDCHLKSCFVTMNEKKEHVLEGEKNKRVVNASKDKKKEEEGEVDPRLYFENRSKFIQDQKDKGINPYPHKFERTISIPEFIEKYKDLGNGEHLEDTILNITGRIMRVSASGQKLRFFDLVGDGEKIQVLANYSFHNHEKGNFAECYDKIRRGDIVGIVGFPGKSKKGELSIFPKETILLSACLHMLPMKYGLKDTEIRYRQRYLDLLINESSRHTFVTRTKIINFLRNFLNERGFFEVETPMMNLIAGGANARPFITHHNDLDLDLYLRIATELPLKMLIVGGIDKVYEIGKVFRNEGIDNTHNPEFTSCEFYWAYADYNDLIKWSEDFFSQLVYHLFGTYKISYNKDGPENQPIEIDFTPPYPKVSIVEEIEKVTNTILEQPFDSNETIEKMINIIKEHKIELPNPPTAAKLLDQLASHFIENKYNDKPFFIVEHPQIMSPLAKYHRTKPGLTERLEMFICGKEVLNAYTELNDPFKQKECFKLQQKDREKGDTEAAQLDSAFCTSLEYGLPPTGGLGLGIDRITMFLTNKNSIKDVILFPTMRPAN
UniProt A4I591, 1-473: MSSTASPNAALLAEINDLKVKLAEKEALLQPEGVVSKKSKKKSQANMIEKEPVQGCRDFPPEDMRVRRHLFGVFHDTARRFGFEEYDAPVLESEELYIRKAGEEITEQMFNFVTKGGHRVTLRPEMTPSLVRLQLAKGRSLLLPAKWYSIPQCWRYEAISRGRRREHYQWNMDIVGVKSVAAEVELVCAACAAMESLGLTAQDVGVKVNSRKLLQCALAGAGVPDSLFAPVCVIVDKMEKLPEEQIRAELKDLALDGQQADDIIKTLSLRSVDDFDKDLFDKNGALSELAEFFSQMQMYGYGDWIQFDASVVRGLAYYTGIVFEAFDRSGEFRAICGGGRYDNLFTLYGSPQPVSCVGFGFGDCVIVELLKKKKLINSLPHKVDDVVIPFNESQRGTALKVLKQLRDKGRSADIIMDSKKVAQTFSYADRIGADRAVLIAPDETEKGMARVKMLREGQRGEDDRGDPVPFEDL
UniProt Q4DA54, 1-478: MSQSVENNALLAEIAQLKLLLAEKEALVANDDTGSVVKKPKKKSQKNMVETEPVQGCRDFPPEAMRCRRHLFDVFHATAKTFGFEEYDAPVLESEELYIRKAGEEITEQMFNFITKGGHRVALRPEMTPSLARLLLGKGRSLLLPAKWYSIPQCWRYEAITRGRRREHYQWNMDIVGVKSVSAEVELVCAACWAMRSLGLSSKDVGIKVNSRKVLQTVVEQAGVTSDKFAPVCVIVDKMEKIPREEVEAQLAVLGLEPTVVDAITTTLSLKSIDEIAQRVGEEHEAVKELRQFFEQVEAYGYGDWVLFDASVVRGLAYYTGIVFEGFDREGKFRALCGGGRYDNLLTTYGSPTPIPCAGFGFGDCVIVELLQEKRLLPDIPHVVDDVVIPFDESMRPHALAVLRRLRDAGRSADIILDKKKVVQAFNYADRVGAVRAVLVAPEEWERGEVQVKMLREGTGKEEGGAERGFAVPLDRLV
UniProt P9WPC5, whole entry: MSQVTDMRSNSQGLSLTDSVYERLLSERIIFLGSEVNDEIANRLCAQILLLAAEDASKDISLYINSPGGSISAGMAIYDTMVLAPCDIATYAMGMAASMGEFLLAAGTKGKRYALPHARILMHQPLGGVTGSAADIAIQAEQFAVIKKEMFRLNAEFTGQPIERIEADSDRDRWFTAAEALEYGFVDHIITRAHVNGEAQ
UniProt P9WPC3, whole entry partner: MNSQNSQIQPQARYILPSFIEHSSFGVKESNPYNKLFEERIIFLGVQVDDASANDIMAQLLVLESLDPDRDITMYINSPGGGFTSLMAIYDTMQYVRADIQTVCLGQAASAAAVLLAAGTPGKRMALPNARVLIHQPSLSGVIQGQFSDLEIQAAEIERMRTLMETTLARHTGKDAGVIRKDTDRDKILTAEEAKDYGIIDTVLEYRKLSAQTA

PfKRS1: 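Lysine-tRNA ligase, Plasmodium falciparum 3D7 (UniProt Q8IDJ8). Enzyme assay of the cytosolic lysyl-tRNA synthetase in 384-well plates, read by luminescence. Compounds at 30 µM. Higher reads as stronger inhibition, judged from the few compounds that gave an IC50. About 69,000 compounds were tested under these conditions; 0.071% (about 49) showed 50% or more at least once.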
LiHisRS: 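Enzyme assay of histidyl-tRNA synthetase; the read-out is not stated. Target: Histidine-tRNA ligase, Leishmania infantum (UniProt A4I591). Concentration: 30 µM. Direction is inferred from retests: higher values go with stronger inhibition. The assay is labelled LdHisRS but filed under L. infantum. Size under these conditions: about 69,000 compounds, about 410 of them at 50% or above in at least one test.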
TcHisRS: 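Histidine-tRNA ligase, Trypanosoma cruzi CL Brener (UniProt Q4DA54). Enzyme assay of histidyl-tRNA synthetase; the read-out is not stated. Compounds at 30 µM. The record gives no direction; compounds that gave an IC50 in retests scored well above the rest, so higher reads as stronger inhibition. About 69,000 compounds were tested under these conditions; 0.045% (about 31) showed 50% or more at least once.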
Leishmania in macrophages: 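Cell assay of Leishmania donovani living inside macrophages; the read-out is not stated. Concentration: 30 µM. The record gives no direction; compounds that gave an IC50 in retests scored well above the rest, so higher reads as stronger inhibition. About 69,000 compounds were tested under these conditions; 1.5% (about 1,000) showed 50% or more at least once.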
ClpP1P2: 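Protease assay of ClpP1P2, read by the AMC dye that it sets free. Target: ClpP1P2, Mycobacterium tuberculosis (UniProt P9WPC5 and UniProt P9WPC3). Compounds at 50 µM. Higher reads as stronger inhibition, judged from the few compounds that gave an IC50. Most other retested compounds had strongly negative values. Of about 69,000 compounds tested this way, about 10 (0.015%) reached 50% or more in at least one test.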

The filed quantity is “Percent Effect” (%). How 0% and 100% were set is not recorded. Most values in the screen are low, and negative values occur. Compounds were drawn at random from those tested, without regard to their results. A dash means the value is not listed here; it may have been measured.

compound | PfKRS1 | LiHisRS | TcHisRS | Leishmania in macrophages | ClpP1P2
OCCOc1cc(F)ccc1NCc1nc(-c2cccs2)no1 | 7.241 | 14.89 | 12.14 | 8.258 | -1.024
Cc1cc(C)n2c(CNCc3ccc(OC(F)F)cc3)cnc2n1 | 6.558 | 36 | 18.52 | -6.429 | 5.377
CCN(CC)CC(=O)N1CCN(c2nc(C)cc(OC)n2)CC1 | 1.948 | 7.339 | 5.882 | 31.54 | -8.7
CCc1ccc(C(C)NCc2nccn2Cc2ccccc2)o1 (configuration not stated) | 6.324 | 11.61 | -1.724 | -14.71 | 7.545
CC(=O)N1CCc2ccccc2C1CC(=O)NCc1nnc(C)o1 (configuration not stated) | 0.9502 | -6.25 | 2.532 | -12.29 | 0.03063
Cc1ccc([C@@H]2CN(C(=O)CCc3cc(Cl)no3)C[C@H]2N(C)C)cc1 | -0.6889 | 2.083 | 5.063 | -18.18 | -9.22
Cc1ccc(C#N)c(N2CCC(c3nccn3CCN(C)C)CC2)n1 | 3.404 | 24.27 | 4.564 | 35.38 | -41.62
CC(C)[C@@H]1CN(C2CCN(Cc3ccccc3)CC2)C[C@H]1NS(C)(=O)=O | 5.407 | 14.29 | 13.27 | 19.83 | 0.6667
CC(=O)N1CCC2(CC1)CN(C(=O)c1ccc3c(c1)OCO3)C2 | 2.868 | 13.59 | 5.825 | 25.71 | -10.1
Cc1cc(C)n(C2CCCN(C(=O)c3cccc4c3OCO4)C2)n1 (configuration not stated) | 0.06888 | 17.54 | -1.433 | 17.28 | 7.081
COc1ccc(-c2cc(C3CC3)c(C#N)c(N)n2)cc1F | 2.843 | 14.16 | -0.8929 | -11.01 | -8.563
CC(NC(=O)NCc1cccc(F)c1)(C(=O)O)c1ccco1 (configuration not stated) | 0.172 | 0.8772 | 2.89 | -7.136 | -16.18
CCC(c1ccc(F)cc1F)S(=O)(=O)CCO (configuration not stated) | 1.155 | 12 | 1.587 | 8.54 | 4.194
CN(C)CCN1CCCC12CCN(C(=O)c1ccncc1)CC2 | 1.641 | -8.257 | 3.365 | - | -1.331
COc1cc(OC)cc(C2(O)CCN(Cc3nc(C)c(C)o3)CC2)c1 | -2.398 | -5.714 | 0 | -1.005 | -4.065
COC(=O)CS(=O)(=O)CCC(=O)N1CCCC1c1ccsc1 (configuration not stated) | 5.945 | 10.58 | 0.813 | 17.72 | -7.943
Cc1cc(C2CCCN(C(=O)c3ccc(OCC4CC4)nc3)C2)n[nH]1 (configuration not stated) | 1.847 | 18.28 | 4.167 | -16.1 | -0.7245
Cc1cc(S(=O)(=O)NCC(C)(C)N)c(F)cc1F.Cl | - | - | - | 25.52 | -
O=C(COCc1ccccc1Cl)N1CCCC(n2cccn2)C1 (configuration not stated) | -0.4255 | 13.33 | 2.642 | -14.11 | 11.96
CCc1csc(CNC2CCN(c3ccc(C)cc3)CC2)n1 | 1.449 | 12.5 | 7.595 | 2.56 | -9.662
CN(Cc1ccsc1)C(=O)CN1CCCC(Cn2cncn2)C1 (configuration not stated) | 0.5533 | 13.46 | 10.86 | 16.27 | -5.059
Cc1noc(C)c1CN1CCC2(CC1)CC(Oc1cccnc1)C2.O=C(O)C(F)(F)F.O=C(O)C(F)(F)F | - | - | - | 5.841 | -
Cc1cnn(CCCNC2Cc3ccccc3C2)c1 | 4.254 | 8.219 | 4.762 | 11.14 | 9.176
Cc1cc(C)c(CNC(=O)NCc2nnc3n2CCCC3)c(=O)[nH]1 | 5.08 | 13.7 | 7.937 | 1.844 | 1.847
N#Cc1cc(Cl)ccc1N1CCN(C(=O)C2CCC2)CC1 | 10.83 | 15.05 | 3.627 | -3.743 | -18.05
Nc1nc(CCC(=O)N2C[C@H](c3ccccc3)[C@@H](N)C2)cs1 | 3.948 | 2.667 | 8.152 | -17.7 | -2.278
O=C(Cn1ccc2c(Cl)cccc21)N1CCCC1 | 2.225 | 23.38 | 0 | 16.62 | -7.964
Cc1ccnc(C2COCCN2C)n1 (configuration not stated) | 0.1606 | 2.797 | -1.13 | -29.42 | -17.27
CS(=O)(=O)c1ccccc1-n1cc(NC(=O)CC2C=CCC2)cn1 (configuration not stated) | 4.916 | 21.84 | 12.37 | 4.466 | 5.856
CCc1[nH]c2c(CNC(=O)C3CCC(=O)NC3)cc(C)cc2c1C (configuration not stated) | 8.995 | 19.17 | -5.797 | 28.17 | -35.63
O=c1c(CN2CCCCC2)coc2ccc(Cl)cc12 | 62.13 | 5.882 | 6.173 | 24.1 | -12.16
Cc1ccc2c(c1)C1(CCN(C(N)=O)CC1)CN2CC1CC1 | 1.138 | 23.76 | 5.528 | 36.97 | 7.971
O=C(Cc1ccc(CO)cc1)N1CCN(c2ccccc2Cl)C(=O)C1 | 5.704 | 24.73 | 7.738 | 6.897 | -2.472
COc1ccc(F)cc1C(=O)N(C)Cc1cc(C)on1 | 3.563 | 6.383 | 0 | 22.45 | 17.89
CCOCC(O)CN1CCN(C(=O)Cc2ccccc2Cl)CC1 (configuration not stated) | 0.5457 | -2.4 | 3.422 | -1.939 | -1.917
COC1CCN(S(=O)(=O)N2CC[C@@](O)(C3CCC3)[C@H](C)C2)CC1 | 1.132 | 1.961 | -1.235 | 14.98 | -1.585
Cl.O=C(NCc1ccccc1)C1=NOC2(CCNC2)C1 (configuration not stated) | - | - | - | 12.28 | -
c1cnc(N2CCOCC3(CN(Cc4ccsc4)CCO3)C2)nc1 (configuration not stated) | 3.777 | 19.66 | 4.813 | - | -5.353
Cc1ccc(F)c(NC(=O)CCC(=O)N(C)Cc2cc(C3CC3)[nH]n2)c1 | 4.545 | 3.968 | 2.353 | 5.303 | -17.32
O=C1NCCCCC1SCc1coc(-c2cccc(F)c2)n1 (configuration not stated) | 7.041 | 23.94 | 9.554 | 11.89 | 4.14
CNc1ccccc1C(=O)N(C)CCc1ccccc1 | 6.56 | 38.55 | 3.867 | 14 | -4.941
CCc1ccc(CN2CCC3(CC2)C(=O)N(C)CCN3CC)cc1 | 3.35 | 19.42 | 9.709 | -6.015 | -11.2
CC(C)C(=O)N1CCN(C(=O)c2cc(C(C)C)no2)[C@H]2CS(=O)(=O)C[C@H]21 | 2.344 | 16.3 | 2.97 | - | -7.768
Cc1cnn(C2CCCN(C(=O)CN(C)c3cnccn3)C2)c1 (configuration not stated) | 3.197 | 11.29 | 2.041 | 15.08 | 1.92
CCOc1cccc(CNC(C)c2ccc(-n3ccnc3)cc2)c1O (configuration not stated) | -1.992 | 2.128 | 4.046 | -24.5 | -10.17

For reference, 2 entries once more:

compound	PfKRS1	LiHisRS	TcHisRS	Leishmania in macrophages	ClpP1P2
CC(C)C(=O)N1CCN(C(=O)c2cc(C(C)C)no2)[C@H]2CS(=O)(=O)C[C@H]21	2.344	16.3	2.97	-	-7.768
Cc1ccc([C@@H]2CN(C(=O)CCc3cc(Cl)no3)C[C@H]2N(C)C)cc1	-0.6889	2.083	5.063	-18.18	-9.22

Source: ChEMBL document CHEMBL3988442, “University of Dundee, Small-Polar-MMV Screening Library” (2021).